BV/TV data for 1 substance are collected here from patent publication US12319721B2 (Purdue Research Foundation, priority 2018, dated 2025).

In this experiment the test system is fracture callus of fractured femur. Nature of the experiment: Femur fracture model, microCT of the fracture callus (BV/TV, BV, TbTh, TbSp). The class given is in vivo, Swiss Webster mice. The conditions noted are these: 4 weeks, various concentrations (1, 10 and in part 100 nmol/day), subcutaneous daily. The source says:
All in vivo data included herein are from Swiss Webster mice. […] 1×concentration represents 1 nmol/day, 10× represents 10 nmol/day, 100×represents 100 nmol/day and most studies have an n of 5.
The term “BV/TV” means the bone volume divided by total volume of the 100 thickest micro CT slices of the fracture callus.
The term “TbTh” means the trabecular thickness of the 100 thickest micro CT slices of the fracture callus.
The term “[…]” means the overall bone volume of the 100 thickest micro CT slices of the fracture callus.
The term “TbSp” means the spacing between the trabecula in the 100 thickest micro CT slices of the fracture callus.
The targeted conjugates were synthesized using standard Fmoc solid-phase peptide synthesis, as described above. […] Expression levels of ALP, RUNx2, OSX, osteo-pontin (OPN), collagen 1A (Col-1A), OPG, RANKL, scle-rostin gene (SOST), and OC were quantified via quantitative reverse transcription polymerase chain reaction (RT-qPCR). […] Fracture healing was assessed using microCT (Scanco Medical Ag). Morphometric parameters were quantified in the 100 widest slices of the fracture callus. Trabecular thickness (TbTh), trabecular spacing (TbSp), total volume (TV), and volume of calcified callus (BV) were calculated. […]

With “TP508 D10: Thrombin fragment TP508 conjugated with 10 aspartate acids, SEQ ID NO: 12, DDDDDDDDDDAGYKPDEGKRGDACEGDSGGPFV (10 aspartates)”, the BV/TV entry is on record as “dose dependent manner”.
